# Some of the results follow.
# Tested on: T1, CTL2-GFP (C. trachomatis L2/434/Bu, GFP-expressing)
# T1 construct: L2/434/Bu, GFP-expressing
# Design: species or system HeLa; Intracellular C. trachomatis growth in HeLa cells, bulk GFP fluorescence relative to DMSO
# Conditions: bulk GFP, single well; 28.5 h, 10 µM; inhibitor
row,SMILES,% of control remaining
1,C/C(=N\NC(=O)CCc1c(C)n[nH]c1C)c1ccc(N)cc1 [CBK262935],125.706%
2,COc1cnc(-c2ccc(Cl)cc2Cl)c(NC(=O)Cc2ccccc2)n1 [CBK145398],115.213%
3,O=C(c1ccncc1)N1CCCC(c2cc3ccccc3cn2)C1 (centres unmarked) [CBK285166],121.058%
4,CCc1cc(C(=O)N2CCC(Oc3ccc(F)cc3)CC2)n(C)n1 [CBK282034],96.0619%
5,CN(C)c1ccc(-c2cc(NCCc3ccncc3)ncn2)cc1 [CBK090849],140.025%
6,CC1CCc2nn(CCNC(=O)C3CCCC3)c(=O)cc2C1 (centres unmarked) [CBK284484],147.737%
7,Oc1cc2cccnc2nc1-c1ccccc1 [CBK073697],88.921%
8,O=C1Nc2ccccc2C1Cc1cccc(OC(F)F)c1 (centres unmarked) [CBK287892],106.233%
9,O=C(NC(=S)Nc1ccc2oc(-c3cccc4ccccc34)nc2c1)c1ccco1 [CBK263691],100%
10,CCn1ncc(CN2CCC(c3onc4c3CCCC4)CC2)c1C [CBK284576],124.586%
11,Cc1cc(NC(=O)c2cccs2)nc2c1c(=O)oc1ccccc12 [CBK287439],158.289%
12,Cc1nc(CN2CCCC3(CCN(C(=O)c4ccoc4)C3)C2)cs1 (centres unmarked) [CBK132838],89.3282%
13,CCN1CCN(C(=O)c2csnn2)CC1 [CBK200376],102.835%
14,COc1ccc(Br)cc1C1CCCN1C(=O)Cc1cnccc1C (centres unmarked) [CBK304130],117.801%
15,CCCCn1c(S)nc2c(-c3ccccc3)c[nH]c2c1=O [CBK288505],64.2565%
16,CC(C)(C)CC(=O)N1C[C@@H]2C[C@H](C1)c1ccc(NC(=O)Nc3ccccc3)c(=O)n1C2 [CBK289176],150.032%
17,c1ccc(CN2CCN(c3nccnc3OCCN3CCOCC3)CC2)cc1 [CBK082885T],115.709%
18,COc1ccc(Br)cc1/C=N/NC(=O)C1CC(c2ccccc2)(c2ccccc2)C1 [CBK263218],109.866%
19,CS(=O)(=O)c1ccc(Nc2ccc3c(c2)COC2(CCN(C(=O)Cc4ccc(F)cc4F)C2)O3)cc1 (centres unmarked) [CBK131948],118.545%
20,CN(C)CC(C)(C)CNC(=O)C1=CC(=O)CC(C)(C)O1 [CBK153291],93.5548%
21,COc1ccc(Br)cc1CNCc1ccc(C(=O)O)cc1 [CBK269449C],142.008%

# An excerpt of these results, with tabs:
row	SMILES	% of control remaining
4	CCc1cc(C(=O)N2CCC(Oc3ccc(F)cc3)CC2)n(C)n1 [CBK282034]	96.0619%
5	CN(C)c1ccc(-c2cc(NCCc3ccncc3)ncn2)cc1 [CBK090849]	140.025%
6	CC1CCc2nn(CCNC(=O)C3CCCC3)c(=O)cc2C1 (centres unmarked) [CBK284484]	147.737%
7	Oc1cc2cccnc2nc1-c1ccccc1 [CBK073697]	88.921%
8	O=C1Nc2ccccc2C1Cc1cccc(OC(F)F)c1 (centres unmarked) [CBK287892]	106.233%
9	O=C(NC(=S)Nc1ccc2oc(-c3cccc4ccccc34)nc2c1)c1ccco1 [CBK263691]	100%
10	CCn1ncc(CN2CCC(c3onc4c3CCCC4)CC2)c1C [CBK284576]	124.586%
11	Cc1cc(NC(=O)c2cccs2)nc2c1c(=O)oc1ccccc12 [CBK287439]	158.289%
12	Cc1nc(CN2CCCC3(CCN(C(=O)c4ccoc4)C3)C2)cs1 (centres unmarked) [CBK132838]	89.3282%
13	CCN1CCN(C(=O)c2csnn2)CC1 [CBK200376]	102.835%
14	COc1ccc(Br)cc1C1CCCN1C(=O)Cc1cnccc1C (centres unmarked) [CBK304130]	117.801%
15	CCCCn1c(S)nc2c(-c3ccccc3)c[nH]c2c1=O [CBK288505]	64.2565%

# Following part

row,SMILES,% of control remaining
1,CS(=O)(=O)N1CCN(c2ccccc2NC(=O)c2cccnc2)CC1 [CBK267604],88.6087%
2,COc1ccc(CN2CCCN(S(=O)(=O)c3ccc(-c4ccccc4)cc3)CC2)cc1F [CBK063108],117.529%
3,O=C(O)c1ccccc1C(=O)Nc1ccc(Oc2cccc3ccccc23)cc1 [CBK265131],100%
4,O=C1NC(=O)C(CCCCN2CCCC3(CCN(C(=O)c4ccoc4)C3)C2)N1 (centres unmarked) [CBK132833],121.768%
5,CSc1ccccc1CNC(=O)c1ccc(C)nc1N1CCOCC1 [CBK106224],96.4714%
6,COc1ccc(Sc2ncccc2C(F)(F)F)cc1OC [CBK093760],100%
7,O=C(Nc1ccccn1)c1cc2ccccc2oc1=O [CBK287354],115.988%
8,CN(c1ncc(-c2cc3ccccc3o2)cc1C(=O)Nc1ccc2c(c1)OCO2)S(C)(=O)=O [CBK106464],125.388%
9,CN(Cc1ccccc1)S(=O)(=O)c1ccc(OCC(=O)O)cc1 [CBK276426],127.279%
10,CN(C)c1cccc(Nc2ccc(-c3cccc(C(=O)O)c3)cn2)c1 [CBK036879],196.777%
11,Cc1ccc(Oc2ccc(S(=O)(=O)N3CCOCC3)cc2C(=O)O)cc1 [CBK286748],106.211%
12,Cc1cccc(-c2noc(CN(C(=O)c3ccc4c(c3)OCO4)C(C)C)n2)c1 [CBK268817],105.602%
13,Cc1oc(NC(=O)CN(C)Cc2cccc(F)c2)c(C#N)c1C [CBK305609],133.418%
14,Cc1nn(-c2ccc(F)cc2)c(C)c1CNC(=O)CCC1CCCO1 (centres unmarked) [CBK281456],135.124%
15,CCC(CC)C(=O)N1CCC2(CC1)Nc1cccnc1-n1cccc12 [CBK284508],117.925%
16,Cc1cc(NC(=O)c2cscn2)c2ccccc2n1 [CBK116275],132.783%
17,O=c1[nH]c2ncc(-c3ccoc3)nc2n1Cc1cccs1 [CBK064647],230.188%
18,N#Cc1cccc(C(=O)N2CCC(NC(=O)c3ccc(F)cc3)CC2)c1 [CBK305717],104.093%
19,CCCN[C@@H]1CCc2cc(CNC(=O)c3ccc(C#N)cc3)ccc2C1 [CBK010211C],127.511%
20,Cc1cc2c(=O)n(CC(=O)NCc3ccco3)cnc2s1 [CBK071898],100%

# Source: publication PMC12040169 (PLOS Biology, 2025)
